Data from patent publication US10980754B2, “Anti-fungal compounds” (SAINT LOUIS UNIVERSITY, priority 2016, dated 2021).
At least one structure is not confirmed: it was looked up by name or label, or the drawing left a doubt.

Assays:
[1] = test system: C. neoformans var grubii, KN99; assay: Synergy (checkerboard) assay with Fluconazole or Amphotericin B; format: cell-based; details: with either FLC or AMB; interpretation of FICI
C. neoformans = assay: Fungicidal assay; format: cell-based
Method: To test for fungicidal activity, aliquots of cells were removed after 48 hours of growth in the presence of test compounds at 2×, 4×, and 8× the respective MICs and spotted them on YPD plates. The plates were incubated at 30° C. for 2 days and checked for growth. Growth of cells treated with test compounds was compared to FLC-treated cells, which is known to be fungistatic and to AMB-treated cells, which is known to be fungicidal (Klepser, et al., 1998; Mesa-Arango, et al., 2014).
compounds #54 and #284 were evaluated for fungicidal versus fungistatic activity. This analysis was done in a qualitative assay in parallel with FLC, which is known to be fungistatic (Klepser, et al., 1998) and AMB, which is known to be fungicidal (Mesa-Arango, et al., 2014). The MICs were 3 μM (0.9 μg/mL), 1.5 μM (1.4 μg/mL), 12 μM and 0.31 μM for FLC, AMB, #54 and #284 respectively. (FIGS. 8A & 8B).

O=c1ccccc(Br)c1O [Compound 54, 3-bromotropolone]
interaction of the combination [1]: indifference | cell growth on YPD plates after drug exposure (C. neoformans; 48 hours exposure at 2×, 4× and 8× the MIC, spotted, 30° C. for 2 days): no cell growth | fungicidal versus fungistatic activity (C. neoformans; qualitative conclusion): fungicidal
